Results taken from the supplement of paper PMC6658780.
Structures can show the parent of a compound that is named as a salt. ± gives the standard deviation of the averaged measurements. The list shows a part of the results. Single values are uncertain here, since repeats match poorly.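 The A. baumannii clinical isolates were selected for resistance to the partner antibiotic; the screen seeks drugs that restore its effect. Background from coloured compounds is removed by subtracting the start-of-incubation reading.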

Legend:
[1] = test system: Acinetobacter baumannii WP-487; assay: percent growth inhibition of drug alone vs DMSO control; higher = more growth inhibition; conditions: antibiotic (0.125x MIC): none (0.1% DMSO)
[2] = test system: Acinetobacter baumannii WP-487; assay: percent growth inhibition of drug + antibiotic vs DMSO control; higher = more growth inhibition; conditions: antibiotic (0.125x MIC): colistin

SMILES	percent growth inhibition of drug alone ([1]; 7 µM) [%]	percent growth inhibition of drug alone ([1]; 20 µM) [%]	percent growth inhibition ([2]; 7 µM) [%]	percent growth inhibition ([2]; 20 µM) [%]
CCN(CC)Cc1cc(Nc2ccnc3cc(Cl)ccc23)ccc1O [Amodiaquin dihydrochloride dihydrate]	3.97 ± 4.2	13.8 ± 9.8	53.4 ± 47	62.8 ± 43
OCCN1CCN(CCCN2c3ccccc3Sc3ccc(C(F)(F)F)cc32)CC1 [Fluphenazine dihydrochloride]	-3.05 ± 11	-6.79 ± 4.6		
Cc1cccc(C)c1NC(=O)CN1CCN(CCCC(c2ccc(F)cc2)c2ccc(F)cc2)CC1 [Lidoflazine]	-1.75 ± 7.5	-2.77 ± 3.3	1.5 ± 3	59.2 ± 58
COCCOC(=O)C1=C(C)NC(C)=C(C(=O)OC/C=C/c2ccccc2)C1c1cccc([N+](=O)[O-])c1 (stereo not drawn) [Cilnidipine]	0.481 ± 4.9	5.42 ± 5.2		
O=C(Nc1ccc([N+](=O)[O-])cc1Cl)c1cc(Cl)ccc1O [Niclosamide]	6.93 ± 1.3	40 ± 67	54.9 ± 64	69.1 ± 44
CC[C@H]1OC(=O)C[C@@H](O)[C@H](C)[C@@H](O[C@@H]2O[C@H](C)[C@@H](O[C@H]3C[C@@](C)(O)[C@@H](O)[C@H](C)O3)[C@H](N(C)C)[C@H]2O)[C@@H](CC=O)C[C@@H](C)C(=O)/C=C/C(C)=C/[C@@H]1CO[C@@H]1O[C@H](C)[C@@H](O)[C@@H](OC)[C@H]1OC [Tylosin]	9.65 ± 4.2	2.69 ± 0.62	43.9 ± 65	56 ± 51
C#C[C@]1(O)CC[C@H]2[C@@H]3CCC4=CCCC[C@@H]4[C@H]3CC[C@@]21C [Lynestrenol]	-2.7 ± 3.1	-0.504 ± 2.7	47.4 ± 74	7.36 ± 9.5
CCN(CC)C(=S)SSC(=S)N(CC)CC [Disulfiram]	7.17 ± 5.3	54 ± 81	30.4 ± 41	72.9 ± 38
